From paper doi:10.1101/2025.10.27.684971
Results are given in words; binding and its absence hold for the method and conditions named. In cells and extracts the contact can be indirect. A yes stands for co-enrichment or nearness to the bait. Other partners may have been found. A no says only that the protein was not detected with the bait.

Protein sequences, listed by entry. Tags and fused reporters are not part of them. Residues count along the entry.
UniProt Q92804, residues 2-205: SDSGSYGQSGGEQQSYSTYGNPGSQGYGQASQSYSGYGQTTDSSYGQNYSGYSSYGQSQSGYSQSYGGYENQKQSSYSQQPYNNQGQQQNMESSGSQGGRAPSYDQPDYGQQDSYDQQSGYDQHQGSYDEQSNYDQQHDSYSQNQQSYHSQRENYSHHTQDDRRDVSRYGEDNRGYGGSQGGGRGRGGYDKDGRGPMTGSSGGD
UniProt Q8NDZ2: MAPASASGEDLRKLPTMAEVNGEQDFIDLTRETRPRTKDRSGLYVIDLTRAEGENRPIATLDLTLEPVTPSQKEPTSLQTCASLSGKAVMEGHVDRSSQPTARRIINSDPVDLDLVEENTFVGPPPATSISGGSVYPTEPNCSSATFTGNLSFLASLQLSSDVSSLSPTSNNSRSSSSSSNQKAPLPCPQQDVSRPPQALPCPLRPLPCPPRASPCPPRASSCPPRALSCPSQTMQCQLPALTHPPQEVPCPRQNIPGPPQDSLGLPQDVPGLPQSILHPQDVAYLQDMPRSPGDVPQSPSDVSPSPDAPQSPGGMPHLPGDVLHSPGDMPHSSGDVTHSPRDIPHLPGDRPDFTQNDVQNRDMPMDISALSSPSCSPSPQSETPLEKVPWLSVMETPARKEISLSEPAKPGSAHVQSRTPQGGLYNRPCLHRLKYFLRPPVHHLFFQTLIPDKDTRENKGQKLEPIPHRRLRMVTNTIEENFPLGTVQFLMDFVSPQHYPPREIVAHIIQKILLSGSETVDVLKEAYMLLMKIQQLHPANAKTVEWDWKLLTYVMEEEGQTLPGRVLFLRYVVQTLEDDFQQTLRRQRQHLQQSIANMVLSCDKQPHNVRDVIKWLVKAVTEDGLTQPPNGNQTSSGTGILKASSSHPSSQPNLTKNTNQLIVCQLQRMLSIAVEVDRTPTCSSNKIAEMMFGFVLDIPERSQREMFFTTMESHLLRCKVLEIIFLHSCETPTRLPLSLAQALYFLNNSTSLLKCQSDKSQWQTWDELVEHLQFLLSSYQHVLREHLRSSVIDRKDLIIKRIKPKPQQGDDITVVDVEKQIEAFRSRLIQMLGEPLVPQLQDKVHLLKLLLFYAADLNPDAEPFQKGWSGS

Molecular target: TurboID and mCherry fused directly to TAF15 IDR (human) (UniProt Q92804)
Test: proximity labelling

binding: no binding
Substance: SIMC1 (from UniProt Q8NDZ2 1-872)
